Experimental data as given in US10124111B2, “Small molecule dye for molecular imaging and photothermal therapy” (The Board of Trustees of the Leland Stanford Junior …, priority 2015, dated 2018).

Experiment: NIR-II fluorescence brightness and quantum yield in DI, PBS, FBS, serum and serum proteins
Type: physicochemical
Excerpt: The compound contains a taurine (2-aminoethanesulfonic acid) group at the carboxyl linkers of CH1055. […] Sulfonating the present NIR-II dyes is a general procedure that can be applied to a number of the NIR-II small molecules described above to increase their solubility.
The absorbance value of both fluorophores (OD 0.02) in each respective media is equivalent at the excitation wavelength (808 nm) to compare relative quantum yields. NIR-IIa fluorescent image of a C57 mouse brain (1300 LP) after an intravenous injection of equivalent doses of CH-4T (200 ms exposure; Panel B) and of CH1055-PEG (1 s exposure; Panel D). The image intensity scales have been compensated to account for the differences in the exposure times needed to clearly resolve brain vasculature.
This fluorescence enhancement produces a serum quantum yield of up to ˜10% which is on par with ICG and is among the highest quantum yields of all NIR-II fluorophores (including carbon nanotubes). While soluble in PBS, the quantum yield of CH-4T was determined to be ˜0.07%, yet is enhanced ˜60× through complexation with serum proteins in FBS.
Increased brightening of CH-4T also results from protein interactions. A fluorescence emission spectrum of CH1055-PEG and CH-4T in both FBS and PBS was determined. […] The increased intensity (40,000 a.u. around 1000 nm) for CH-4T in FBS was observed. […]

## O=C(CCc1ccc(N(c2ccc(CCC(=O)NCCS(=O)(=O)O)cc2)c2ccc(-c3c4c(c(-c5ccc(N(c6ccc(CCC(=O)NCCS(=O)(=O)O)cc6)c6ccc(CCC(=O)NCCS(=O)(=O)O)cc6)cc5)c5nsnc35)N=S=N4)cc2)cc1)NCCS(=O)(=O)O [CH-4T]
FBS versus PBS
  quantum yield enhancement through complexation with serum proteins: ~60 ×
With treated FBS
  quantum yield relative to carbon nanotubes: 30 ×
